Experimental data taken from PubChem BioAssay AID493014 (National Center for Advancing Translational Sciences (NCATS), 2011).
Out of some 340,000 compounds screened, about 170 (0.05%) were called active. This list was built around the results that the source calls inconclusive (neither active nor inactive); the mix of calls is not that of the screen. The call rests on the fitted dose curve; in most records, active means well fitted inhibition curve with a large enough effect in the signal ratio, with a control signal flat (not every such curve was filed as active); inconclusive means small, poorly fitted or top-dose-only effect, or effect the other way, or a change in a side signal; inactive means flat fitted curve, though single readings scatter; the % refers to the signal ratio. Potencies of inconclusive entries are doubtful fits and often do not repeat.

Test: qHTS Assay to Find Inhibitors of Chronic Active B-Cell Receptor Signaling;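 on activity change, negative = inhibition: plate controls were basal doxycycline-induced cells for no effect and cells given 10 µM MG132 for full effect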
Conditions: ABC-DLBCL IkBa-CBG/CBR reporter, luminescence ratio (green luciferase fused to IkBa over red control in TMD8 lymphoma cells), 4 h; activity change, negative = inhibition: at 46.1 µM (top of the series) unless noted
Method in brief: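 Cell line TMD8 (human ABC DLBCL), stably expressing tet-inducible CBG68-IkBa fusion and CBR; IMDM/0.5% FBS; cpd up to 46 uM; dox induction, 4 h, 37C/5% CO2; dual luminescence; green/red ratio; MG132 control.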
Potency means the concentration at half of the fitted maximal effect.

SMILES	Potency	activity change, negative = inhibition
c1ccc2[nH]c(CSc3nc4ccccc4s3)nc2c1	inconclusive: 22.4 µM [falling, single point]	
COc1ccc(C2CC(=O)c3c(C)nc(N4CCN(c5ccccc5)CC4)nc3C2)cc1 (configuration not stated)		inconclusive: -2.79%
CN(C)C(=O)c1nc2ccc(Cl)cn2c1CNCc1cccc(OC(F)(F)F)c1		inconclusive: -2.36%
COC(=O)c1[nH]c2ccccc2c1NC(=O)CN1CCN(c2cccc(OC)c2)C(C)C1 (configuration not stated)	inconclusive: 9.2 µM [falling, partial curve, poor fit]	
C=CCSc1nc2sc3c(c2c(=O)[nH]1)CC(C)(CC)OC3 (configuration not stated)		inconclusive: 3.28%
CC1(C)Cc2nc3oc4c(N(CCO)Cc5ccccc5)ncnc4c3cc2CO1		inactive
CCOc1ccc(-n2c(-c3ccc(Br)cc3)c[n+]3c2CCCCC3)cc1	inconclusive: 35.5 µM [falling, single point]	
CCC(C)NC(=O)c1cc(-c2ccc3c(c2)OCO3)on1 (configuration not stated)	inconclusive: 17.8 µM [falling, partial curve]	
CC(C)(CO)NC(=O)c1ccc2c(c1)C(=O)c1ccccc1-2		inactive
c1ccc2[nH]c(CSc3nc4ccccc4o3)nc2c1	inconclusive: 25.9 µM [falling, single point]	
Cc1cc(NC(=O)CSC2=Nc3ccccc3C3=NC(Cc4ccccc4)C(=O)N23)n[nH]1 (configuration not stated)		inactive
Cc1csc(NC(=O)CSc2nnc(NC(=O)COc3ccc(Cl)cc3)s2)n1		inactive
COc1ccc(C2NC(=O)C(C#N)=C(S)N2c2ccccc2)cc1OC (configuration not stated)		inconclusive: -5.43%
COc1ccc2c(c1)C(=NNC(=O)c1ccccn1)c1cc(OC)ccc1-2	inconclusive: 8.2 µM [falling, partial curve, poor fit]	
COc1ccc(C(=O)C2CCCN(Cc3cc(C)c(O)c(C)c3)C2)c(OC)c1 (configuration not stated)		inactive
O=C(NC(=S)Nc1ccccc1F)C1CCCCC1		inconclusive: 1.52%
CN(C(=O)c1ccc(NC(=O)Cc2ccc(NC(=O)C3CCN(C(=O)C4CC4)CC3)cc2)cc1)C1CC1		inconclusive: 1.77%
O=[N+]([O-])c1cccc(-c2nnc3ccc4ccccc4n23)c1		inconclusive: 3.66%
COc1ccc2sc(-c3ccc(N(C)C)cc3)c(C#CC(C)(C)O)c2c1		inconclusive: -0.549%
CN1CCC(N(C)C(=O)c2cccc(S(=O)(=O)N3CCc4ccccc43)c2)CC1		inconclusive: 8.16%
Clc1ccc(-c2cc(-c3ccccn3)on2)c(Cl)c1	inconclusive: 14.1 µM [falling, partial curve, poor fit]	

SMILES	Potency	activity change, negative = inhibition
COC(=O)c1cnn2c(C(F)(F)F)cc(-c3ccccc3)nc12		inconclusive: 18.2%
CCSc1nc2cc(S(=O)(=O)N3CCOCC3)ccc2o1		inactive
COc1ccccc1-c1nnc(NC(=O)c2ccc(S(=O)(=O)N3CCOCC3)cc2)o1	inconclusive: 3.16 µM [falling, partial curve, poor fit]	
C[C@@H](C(=O)NCc1c(F)cccc1Cl)N1C(=O)N2CCc3c([nH]c4ccccc34)[C@@]2(C)C1=O		inconclusive: -3.92%
COC(=O)c1ccccc1Oc1nc(Cl)cc(OC)n1		inconclusive: 5.46%
CCN(CC)S(=O)(=O)c1ccc(C(=O)N2CCN=C2SCc2cccnc2)cc1	inconclusive: 10.3 µM [falling, partial curve]	
CC(=O)Nc1nc2ccc(Br)cc2s1		inconclusive: -27.8%
COc1ccc(/C=N/NC(=O)c2cc(-c3ccccc3OC)nc3ccccc23)cc1COC(C)=O		inconclusive: 1.23%
COc1ccccc1CC(=O)N(Cc1ccccc1)c1cccc(C)c1		inactive
Cc1ccc(S(=O)(=O)NC(C)C(c2cccs2)N2CCN(c3ccccc3)CC2)cc1 (configuration not stated)		inconclusive: 12.4%
CC(C)(C)C(=O)OCOC(=O)[C@@H]1N2C(=O)[C@@H](N=CN3CCCCCC3)[C@H]2SC1(C)C		inactive
O=C(NCc1ccccc1)C1CCC(CNc2c(N3CCCCC3)c(=O)c2=O)CC1 (configuration not stated)		inconclusive: 0.632%
COc1ccc(C(CC(=O)N2CCOCC2)c2c(O)cc(OC)cc2OC)cc1 (configuration not stated)		inconclusive: 0.653%
O=C(NC1CCCC1)C(c1ccc(F)cc1)N(C(=O)c1csnn1)C1CC1 (configuration not stated)		inactive
Cc1ccccc1NC(=S)C1=C(O)c2sccc2N(C)S1(=O)=O	inconclusive: 2.59 µM [falling, full curve, poor fit]	
CCN(CC)C(=O)CSc1nc2ccccc2c(=O)[nH]1		inconclusive: 16.3%
O=C(Nc1ccc2nc(-c3ccccc3)[nH]c2c1)c1ccco1		inconclusive: 2.19%
O=C(Cc1ccc(Cl)cc1)Nc1ccc(Cl)cn1		inconclusive: 2.44%
CCOC(=O)c1[nH]c(C)c(C(=O)NC2CCCCCC2)c1C		inconclusive: 4.06%
CCOc1ccc(NS(=O)(=O)c2ccc(NS(=O)(=O)c3ccc(SC)cc3)cc2)cc1		inactive
O=C(Cc1ccsc1)Nc1ccccc1F	inconclusive: 10 µM [falling, single point]	

Part of the list above, bar-delimited:
SMILES | Potency | activity change, negative = inhibition
c1ccc2[nH]c(CSc3nc4ccccc4s3)nc2c1 | inconclusive: 22.4 µM [falling, single point] | 
Cc1cc(NC(=O)CSC2=Nc3ccccc3C3=NC(Cc4ccccc4)C(=O)N23)n[nH]1 (configuration not stated) |  | inactive
CN1CCC(N(C)C(=O)c2cccc(S(=O)(=O)N3CCc4ccccc43)c2)CC1 |  | inconclusive: 8.16%
CC(C)(C)C(=O)OCOC(=O)[C@@H]1N2C(=O)[C@@H](N=CN3CCCCCC3)[C@H]2SC1(C)C |  | inactive
CCN(CC)C(=O)CSc1nc2ccccc2c(=O)[nH]1 |  | inconclusive: 16.3%
O=C(Cc1ccsc1)Nc1ccccc1F | inconclusive: 10 µM [falling, single point] | 

(further entries)

SMILES	Potency	activity change, negative = inhibition
S=c1[nH]nc(COc2ccccc2)n1/N=C/c1c(Cl)cccc1Cl		inconclusive: 6.64%
CC(=O)C1=C(C)N(Cc2ccccc2)C(=O)N[C@H]1c1cccc(C(F)(F)F)c1		inconclusive: -13.3%
O=C(c1cc2cc(Cl)ccc2[nH]1)N1CCN(Cc2ccc3c(c2)OCO3)CC1		inconclusive: 0.856%
CCCOc1ccc(CSc2ncn[nH]2)cc1	inconclusive: 6.51 µM [falling, partial curve, poor fit]	
Cc1cc(C(=O)O/N=C(\N)c2ccc(C(C)(C)C)cc2)no1		inactive
O=C(CNC(=O)c1cccs1)c1ccc(F)cc1	inconclusive: 7.31 µM [falling, single point]	
CCOc1ccc(N2CC(NC(=O)C3CC3)CC2=O)cc1 (configuration not stated)		inactive
Cc1ccnc(NC(=O)CSc2cc(=O)n(C)c3ccccc23)c1		inconclusive: 16.4%
CN(C)CCCN(Cc1cc2cc3c(cc2[nH]c1=O)OCCO3)C(=O)NC1CCCCC1	inconclusive: 2.24 µM [falling, partial curve, poor fit]	
Cc1ccc(CNc2oc(C)nc2C#N)cc1		inconclusive: -2.48%
O=C(OCC#CCNc1nnc(-c2cccc3ccccc23)o1)c1cccs1		inactive
CN1CCC(=NNc2ccc(S(=O)(=O)N3CCOCC3)cc2[N+](=O)[O-])CC1		inconclusive: -4.16%
O=C1CCCN1CCCNc1nc2c(S(=O)(=O)c3ccccc3)nnn2c2ccc(Cl)cc12		inconclusive: -1.26%
Cc1ccc(-n2c(N)c(-c3nc4ccccc4n3C)sc2=S)cc1		inconclusive: -18.2%
CCCn1c2ccc(F)cc2c2nnc(SCCN(CC)CC)nc21		inactive
CC(C(=O)N1CCCCC1)n1sc2ccccc2c1=O (configuration not stated)		inconclusive: 16.8%
CCCCC[C@]12Cc3cc(OC)c(OC)cc3[C@H](O1)c1c(cc(C)oc1=O)O2		inactive: -0.574% [at 9.22 µM]
O=C1CC(c2cc([N+](=O)[O-])ccc2Cl)c2c(ccc3ccccc23)N1 (configuration not stated)		inactive
COc1ccc(OC)c(S(=O)(=O)NCC(c2cccs2)S(=O)(=O)c2ccc(F)cc2)c1 (configuration not stated)		inactive
COCCNC(=O)c1oc2ccc3c(c2c1C)C(O)CC(C)(C)O3 (configuration not stated)		inactive
COC(=O)[C@@]1(Cc2ccccc2)[C@H]2C(=O)N(Cc3ccccc3)C(=O)[C@H]2[C@H]2CN=C(SCC(=O)c3ccccc3)N21		inactive

SMILES	Potency	activity change, negative = inhibition
CC(C)c1ccc(OCCCCCN2CCOCC2)cc1		inconclusive: -1.44%
CCCS(=O)(=O)N1CCC(C(=O)NCCOC)CC1		inactive
CCN1CCN(c2ccc(S(=O)(=O)N3CCCCC3)cc2NC(=O)c2cc3ccccc3o2)CC1		inactive
COC(=O)c1cc(NC(=O)C(C)c2ccc(CC(C)C)cc2)ccc1O (configuration not stated)		inconclusive: 21%
Cc1ccsc1C(=O)OCC(=O)c1ccc[nH]1	inconclusive: 18.4 µM [falling, partial curve]	
COc1ccc(-c2cc3ccc(OCc4nn[nH]n4)cc3oc2=O)cc1		inconclusive: 8.78%
Cc1cc(NC(=O)CS(=O)(=O)c2cn(Cc3cccc(F)c3)c3ccccc23)no1		inconclusive: -1.01%
CCn1ccc(=O)c2cc3c(cc21)OCO3		inactive
CCSC1=C(C#N)C2(CCCCC2)C2=C(CC(C)(C)CC2=O)N1		inconclusive: 6.57%
Cc1cc(-c2nnc3n2N=C(c2ccccc2)CS3)n[nH]1	inconclusive: 10 µM [falling, partial curve]	
N#Cc1ccccc1S(=O)(=O)N1CCN(C(=O)c2cn(-c3ccccc3)nc2-c2cccnc2)CC1		inconclusive: 1.76%
Cc1ccc(-c2cc(C(=O)O)c3ccccc3n2)c(C)c1		inactive
Brc1cccc(-c2cnco2)c1		inconclusive: 6.44%
CC1C=CCC2C(=O)N(c3cc(Cl)ccc3O)C(=O)C12 (configuration not stated)		inconclusive: 21.1%
Nc1sc(-c2ccccc2)cc1C(=O)N/N=C/c1ccc(Cl)cc1	inconclusive: 12.6 µM [rising, partial curve, poor fit]	
Cc1cccc(/C=N/NC(=O)c2cccc(Cl)c2)n1		inactive
COc1ccc(NC(=O)N(C)C[C@H]2Oc3ccc(NC(=O)NC(C)C)cc3C(=O)N([C@H](C)CO)C[C@@H]2C)cc1		inconclusive: 1.2%
Cc1cc(C)c2cc(CN(Cc3nnnn3Cc3ccc(F)cc3)C3CCCC3)c(=O)[nH]c2c1		inconclusive: 10.4%
Cc1cccc(N(C(=O)c2snc(C(N)=O)c2N)C(C(=O)NCC2CCCO2)c2c[nH]c3ccccc23)c1 (configuration not stated)		inconclusive: -19.2%
